Test [1] has as its target IM30 α1-3 (Synechocystis) (UniProt Q55707). Kind of test: native MS; 10 μM protein in 200 mM ammonium acetate, Q-ToF Ultima; self-association; both purified.
Test [2] shares this target. As to the kind of experiment: cross-linking; BS3 (285 μM), 5.7 μM protein in solution without liposomes, 25°C, SDS-PAGE; self-association; both purified.

No constants are given. Whether binding was seen depends on the method and setting. Some binding calls cover weakened binding; strength is not graded here.

The results in this text go back to publication PMC12636044, “Membrane binding of a cyanobacterial ESCRT‐III protein crucially involves the helix α1‐3 hairpin conserved in all superfamily members” (Protein Science : A Publication of the Protein Society, 2025).

B1: IM30 α1-3 (domain or fragment, Synechocystis, UniProt Q55707 26-156, looked up)
chain: EKVLEQAVIDMQEDLVQLRQAVARTIAEEKRTEQRLNQDTQEAKKWEDRAKLALTNGEENLAREALARKKSLTDTAAAYQTQLAQQRTMSENLRRNLAALEAKISEAKTKKNMLQARAKAAKANAELQQTL
notes: IM30 (Vipp1) of Synechocystis, helical hairpin α1-3, residues 26-156 (printed for the α1-3 fragment in the simulation); calculated mass about 17.5 kDa; also called IM30 αH1-3; α1-3 helical hairpin; not shown: His10, N-terminal, kept
With B1, the binding entry in test [1] and in test [2] was “binds weakly” throughout.
